# Test results reported in PubChem BioAssay AID493014 (National Center for Advancing Translational Sciences (NCATS), 2011).
# Screen size: about 340,000 compounds; about 170 (0.05%) were called active. This list was built around the results that the source calls inconclusive (neither active nor inactive); the mix of calls is not that of the screen. Calls follow the shape of the dose curve; as a rule, active = well fitted inhibition curve with a large enough effect in the signal ratio, with a control signal flat (not every such curve was filed as active); inconclusive = small, poorly fitted or top-dose-only effect, or effect the other way, or a change in a side signal; inactive = flat fitted curve, though single readings scatter; the % refers to the signal ratio. Where the call is inconclusive, the potency comes from a doubtful curve fit.
# Experiment: qHTS Assay to Find Inhibitors of Chronic Active B-Cell Receptor Signaling;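 as to activity change, negative = inhibition: plate controls were basal doxycycline-induced cells for no effect and cells given 10 µM MG132 for full effect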
# Details: ABC-DLBCL IkBa-CBG/CBR reporter, luminescence ratio (green luciferase fused to IkBa over red control in TMD8 lymphoma cells), 4 h; activity change, negative = inhibition: at 46.1 µM (top of the series) unless noted
# In short: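 TMD8 ABC-DLBCL cells carrying doxycycline-inducible green luciferase fused to IkappaBalpha plus unfused red luciferase were exposed to compounds (up to 46 uM) for 4 hrs at 37C. Activity came from the overlap-corrected green/red luminescence ratio.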
# Potency is read from the fitted curve at half-maximal effect.
Structure (SMILES),"activity change, negative = inhibition",Potency
CCC(C)NCCOCCOc1ccc(F)cc1 (configuration not stated),inconclusive: -1.19%,
CN(Cc1ccccc1)CC1CCCN(CCc2ccccc2F)C1 (configuration not stated),inactive: 0.468%,
O=C1c2cccc3cccc(c23)C(=O)N1CC1CCCO1 (configuration not stated),inconclusive: -12.6%,
CCOC(=O)N1CCN(C(=O)CCNS(=O)(=O)c2ccc3c(c2)c(=O)n(C)c(=O)n3C)CC1,inactive: 2.55%,
COc1ccc(CCNc2cc(C)[nH]c(=O)c2)cc1OC,inconclusive: 0.646%,
COc1ccc2[nH]c(C(=O)Nc3ccc4c(c3)OCO4)cc2c1,inconclusive: -18.3%,
O=C(O)c1cc(N/N=C/c2cccnc2)ccc1Cl,,"inconclusive: 35.5 µM [rising, single point]"
O=C(Oc1ccc(Cl)c2cccnc12)c1cccnc1,inconclusive: -8.12%,
N#Cc1cccnc1N1CCC(C(N)=O)CC1,inactive: 9.46%,
Cc1nc(NC(=O)/C=C/c2ccco2)sc1C,inconclusive: -10.5%,
COc1ccc(/C=C2/SC(=O)N(CCNC(=O)CC(NC(C)=O)c3ccccc3)C2=O)cc1 (configuration not stated),inconclusive: 20.7%,
COc1ccc(C(=O)Nc2nnc(CCc3ccccc3)s2)c(OC)c1,inconclusive: -1.91%,
O=C(NC1(Cc2ccccc2)CCN(CCCc2ccccc2)C1=O)c1ccccc1 (configuration not stated),inactive: -5.7%,
Nc1cc(=O)[nH]c(SCc2ccccc2Cl)n1,inactive: -5.13%,
CCSc1nnc(NC(=O)c2cc(C)oc2C)s1,inconclusive: -1.37%,
Nc1ccc2nc(SCc3cccc(F)c3)sc2c1,,"inconclusive: 11.2 µM [falling, partial curve, poor fit]"
C[C@H](NC(=O)c1nc[nH]c1C(=O)NCCCCCNC(=O)OC(C)(C)C)c1ccccc1,inconclusive: -7.84%,
Nc1c(C(=O)CSc2nccn2-c2ccc(Cl)cc2)c(=O)[nH]c(=O)n1C1CC1,,"inconclusive: 29.1 µM [falling, single point]"
C/C(=N\NC(=O)Cc1ccc(Br)cc1)c1cccnc1,inconclusive: 9.54%,
Cc1ccc2cc(C(=O)O)c(C)nc2c1,inactive: 10.6%,
CN(CC(=O)Nc1ccccc1C(F)(F)F)CC(=O)N1CCCCCC1,inconclusive: 7.65%,

# Some of these compounds in order of molar mass, low to high:
Structure (SMILES),"activity change, negative = inhibition",Potency
CCSc1nnc(NC(=O)c2cc(C)oc2C)s1,inconclusive: -1.37%,
C/C(=N\NC(=O)Cc1ccc(Br)cc1)c1cccnc1,inconclusive: 9.54%,
COc1ccc(/C=C2/SC(=O)N(CCNC(=O)CC(NC(C)=O)c3ccccc3)C2=O)cc1 (configuration not stated),inconclusive: 20.7%,

# (further entries)

Structure (SMILES),"activity change, negative = inhibition",Potency
COc1ccc(CCN2C(=O)c3ccccc3NC2c2cc(Cl)c(O)c(OC)c2)cc1 (configuration not stated),,"inconclusive: 11.2 µM [falling, partial curve, poor fit]"
Cc1ccc(CNC(=O)C(=O)c2cn(CC(=O)N3CCCC3)c3ccccc23)cc1,,"inconclusive: 1.12 µM [falling, partial curve, poor fit]"
Cn1c(CCc2nc3ccccc3[nH]2)nnc1SCC#N,inconclusive: 3.14%,
O=C(N/N=C/C=C/c1ccc([N+](=O)[O-])cc1)c1cccs1,,"inconclusive: 8.91 µM [falling, partial curve, poor fit]"
CN(C)CCn1c(=S)[nH]c2ccccc2c1=O,inactive: -1.71%,
COc1ccccc1/C=C/C(=O)NNC(=O)c1cc(C)oc1C,,"inconclusive: 20.6 µM [falling, partial curve]"
COc1ccc(-c2nc3ccccc3nc2-c2ccccc2)cc1,inactive: 23.5%,
CCC(=O)Oc1c(C(=O)CC)cc2c(C)cc(=O)oc2c1C,inconclusive: 3.86%,
Nc1ncnc2c1c(-c1ccc(Oc3ccccc3)cc1)cn2C1CCCC1,,"inconclusive: 1.46 µM [falling, full curve]"
CCOCCCNC(=S)NCCCNc1nc2ccc(C)cc2cc1C#N,inactive: -18.7%,
CN(Cc1ccco1)S(=O)(=O)c1csc(C(N)=O)c1,inactive: -3.84%,
CCCc1nc2c(s1)CCc1onc(-c3ccc(Cl)cc3)c1-2,inactive: 3.4%,
O=C(NCCCn1ccnc1)c1ccc(Cl)cc1[N+](=O)[O-],,"inconclusive: 20 µM [falling, single point]"
CC(NC(=O)C12CC3CC(CC(C3)C1)C2)C(=O)NN=Cc1ccc([N+](=O)[O-])o1 (configuration not stated),inactive: 2.35%,
CC(C)C1=C2OC(N)=C(C#N)C(C#N)=C2C(C)CC1 (configuration not stated),inconclusive: 8.35%,
COc1ccc(NC(=O)N(C)C[C@H]2Oc3ccc(NC(=O)CCN4CCOCC4)cc3C(=O)N([C@@H](C)CO)C[C@H]2C)cc1,inconclusive: -0.304%,
CCOc1ccc(CNC(=O)C(=O)c2cn(CC(=O)N3CCOCC3)c3ccccc23)cc1OC,,"inconclusive: 15.8 µM [falling, single point]"
CC(Oc1ccc(-c2ccccc2)c(F)c1)c1ccn(S(=O)(=O)c2ccc(Br)cc2)n1 (configuration not stated),,"inconclusive: 8.91 µM [rising, partial curve, poor fit]"
CCOC(=O)c1c(C)[nH]c(C)c1C(=O)COC(=O)c1cc2ccccc2cc1O,inconclusive: -19.4%,
CC(=O)Nc1ccc2nc(NC(=O)CS(=O)(=O)c3ccccc3)sc2c1,inconclusive: -25.5%,
O=C(O)CC1SC(=O)N(Cc2ccccc2)C1=O (configuration not stated),,"inconclusive: 12.6 µM [rising, partial curve, poor fit]"
